Measurements published in US10344046B2, “Nucleotide and oligonucleotide prodrugs” (priority 2005, dated 2019).
Some entries share one result that the patent states for a list of compounds.

System: human hepatitis B virus
Type: in vivo, transgenic mice
Conditions: 300 to 400 mg/kg daily for 14 days by oral gavage; Southern blot

## CO[C@H]1C(OP(=O)(OC[C@H]2O[C@@H](n3cnc4c(N)ncnc43)CC2O)SCOC(=O)OC(C)C)[C@@H](CO)O[C@H]1n1ccc(=O)[nH]c1=O (stereo partly shown) [Compound 6k, S-isopropylcarbonyloxymethyl Thiophosphate Derivative 6k of 3′dApsU2′OMe]
  reduction of liver HBV DNA compared to untreated control: up to 2 log
